From PubChem BioAssay AID226 (DTP/NCI, 2004) come the findings set out here.

Each structure is given as a SMILES string. The list is a part of this screen's results and no random one: it is rich in T/C values a quarter to a half above the control, in often repeated tests (any T/C) and in doses without a T/C. Other doses and runs of a compound stand elsewhere. T/C is the treated group as % of the vehicle group. Some entries give survivors of the animals treated and no T/C: the source holds a T/C of zero for them, seemingly a mark for toxic or unscored doses. Some doses without a T/C left all or most animals alive at the check, yet need not have been tolerated: the source hardly ever lists a survival T/C far under the control, and the zero likely stands for such cases as well. Survivors were counted at the toxicity check, usually on the fifth day, unless a day is given; later deaths do not show. Schedules are NCI's codes, read here as Q, the interval in days (D) or hours (H), X, the number of doses. Some entries were tested several times; their values stand side by side, smallest first. For survival time, this PubChem deposit counts one and a half times the control or more as active, and values a quarter to a half above the control carry no call in these data; other NCI protocols may use other cut-offs. Some T/C values carry the count of animals alive at the toxicity check (mostly the fifth day); without a count, all were alive then.

The experiment deals with B6C3F1 mice, intracerebral ependymoblastoma, median survival T/C. Nature of the experiment: NCI In Vivo Anticancer Drug Screen. Data for tumor model Ependymoblastoma (intracerebral) in B6C3F1 mice. The conditions noted are these: T/C endpoint: median survival time, higher T/C = longer survival. On the procedure: The antitumor activity of compounds was measured in mice bearing transplantable tumors. Survival or tumor size were measured and the results are expressed as the measurement made in the treated group (T) divided by the measurement made in the vehicle treated control group (C). The tumor model used in this assay is Ependymoblastoma (intracerebral) in B6C3F1 mice

Setting [1] is: dose: 128.0 mg/kg/injection, schedule: Q01DX005 (ip), vehicle: saline with Tween-80.
Setting [2] is: dose: 512.0 mg/kg/injection, schedule: Q01DX001 (ip), vehicle: Klucel (hydroxypropylcellulose) (HPC).

Turning to `CC(=O)OC1COC(NC(=O)N(CCCl)N=O)C(OC(C)=O)C1OC(C)=O` (centres undefined), the T/C by setting is: (dose: 0.75 mg/kg/injection, schedule: Q01DX009 (ip), vehicle: saline with Tween-80) 125 % of control; (dose: 1.5 mg/kg/injection, schedule: Q01DX009 (ip), vehicle: saline with Tween-80) 147 % of control; (dose: 3.0 mg/kg/injection, schedule: Q01DX005 (ip), vehicle: saline with Tween-80) 128 % of control; (dose: 6.0 mg/kg/injection, schedule: Q01DX005 (ip), vehicle: saline with Tween-80) 146 % of control. The survivor count (dose: 12.0 mg/kg/injection, schedule: Q01DX005 (ip), vehicle: saline with Tween-80) is reported as 3 of 10.
Turning to `O=c1[nH]cc(F)c(=O)[nH]1`, the survivor count (dose: 64.0 mg/kg/injection, schedule: Q01DX005 (ip), vehicle: saline) is reported as 10 of 10; the survivor count (dose: 128.0 mg/kg/injection, schedule: Q01DX005 (ip), vehicle: saline) is 10 of 10; the survivor count (dose: 256.0 mg/kg/injection, schedule: Q01DX005 (ip), vehicle: saline) is given as 10 of 10.
As for `CCOC(=O)CC(SP(=S)(OC)OC)C(=O)OCC` (centres undefined), the survivor count (dose: 400.0 mg/kg/injection, schedule: Q01DX005 (ip), vehicle: suspension in saline) was 1 of 10.
With `[Cl][Pt+2][Cl].[NH-]C1CCC1.[NH-]C1CCC1`, the survivor count is, setting by setting: (dose: 40.0 mg/kg/injection, schedule: Q01DX005 (ip), vehicle: dextrose) 8 of 10; (dose: 160.0 mg/kg/injection, schedule: Q01DX005 (ip), vehicle: dextrose) 8 of 10.
Consider `CN1C(=O)CC(c2ccc(NC(=O)N(CCCl)N=O)cc2)C1=O` (centres undefined), for which the T/C (dose: 3.0 mg/kg/injection, schedule: Q01DX005 (ip), vehicle: distilled water + Tween-80) was 132 % of control.
Turning to `NC(C/[N+]([O-])=N/O)C(=O)O` (centres undefined), the survivor count runs as follows: (dose: 100.0 mg/kg/injection, schedule: Q01DX009 (ip), vehicle: Klucel (hydroxypropylcellulose) (HPC)) 10 of 10; under setting [1], 10 of 10.
On to `C1CCC2C[N-]CCC2C1.C1CCC2C[N-]CCC2C1.C1CCC2C[N-]CCC2C1.C1CCC2C[N-]CCC2C1.[Cl][Rh][Cl]` (centres undefined), for which the survivor count runs as follows: (dose: 8.0 mg/kg/injection, schedule: Q01DX005 (ip), vehicle: dextrose) 6 of 10; (dose: 16.0 mg/kg/injection, schedule: Q01DX005 (ip), vehicle: dextrose) 0 of 10; (dose: 32.0 mg/kg/injection, schedule: Q01DX005 (ip), vehicle: dextrose) 0 of 10.
As to `CC(C)=CCC1=C(O)c2ccccc2C(=O)C1=O`, the T/C (dose: 64.0 mg/kg/injection, schedule: Q01DX001 (ip), vehicle: Klucel (hydroxypropylcellulose) (HPC)) was 101 [survivors not given], 105, 107 [survivors not given], 111 % of control [survivors not given]; the T/C (dose: 128.0 mg/kg/injection, schedule: Q01DX001 (ip), vehicle: Klucel (hydroxypropylcellulose) (HPC)) was 92 [survivors not given], 100 [survivors not given], 105 [9 of 10 alive], 115 % of control [survivors not given]; the T/C (dose: 256.0 mg/kg/injection, schedule: Q01DX001 (ip), vehicle: Klucel (hydroxypropylcellulose) (HPC)) was 93 [survivors not given], 94 [survivors not given], 95 [survivors not given], 103 % of control [6 of 10 alive]; the T/C under setting [2] was 99 % of control [survivors not given]. The survivor count by setting is: (dose: 256.0 mg/kg/injection, schedule: Q01DX005 (ip), vehicle: Klucel (hydroxypropylcellulose) (HPC)) 3 of 10; under setting [2], 1 of 10.
As for `CN(C)/N=N/c1nc[nH]c1C(N)=O`, the T/C is, setting by setting: (dose: 12.5 mg/kg/injection, schedule: Q01DX005 (ip), vehicle: saline with Tween-80) 134 % of control; (dose: 16.0 mg/kg/injection, schedule: Q01DX005 (ip), vehicle: saline with Tween-80) 145 % of control; (dose: 25.0 mg/kg/injection, schedule: Q01DX005 (ip), vehicle: saline with Tween-80) 143 % of control; (dose: 50.0 mg/kg/injection, schedule: Q01DX005 (ip), vehicle: saline with Tween-80) 148 % of control; (dose: 100.0 mg/kg/injection, schedule: Q01DX005 (ip), vehicle: Klucel (hydroxypropylcellulose) (HPC)) 136 % of control; under setting [1], 146 % of control. For the same compound, the T/C (dose: 200.0 mg/kg/injection, schedule: Q01DX005 (ip), vehicle: Klucel (hydroxypropylcellulose) (HPC)) is 133 % of control and the T/C (dose: 400.0 mg/kg/injection, schedule: Q01DX005 (ip), vehicle: Klucel (hydroxypropylcellulose) (HPC)) is 136 % of control.
For the compound `COC12C(COC(N)=O)C3=C(C(=O)C(C)=C(N)C3=O)N1CC1C2N1C` (centres undefined), where the note is “dose: 8.0 mg/kg/injection, schedule: Q01DX005 (ip), vehicle: Klucel (hydroxypropylcellulose) (HPC)”, the T/C was 127 and 131 % of control. In addition, the survivor count was 9 of 10 and 10 of 10 (dose: 16.0 mg/kg/injection, schedule: Q01DX005 (ip), vehicle: Klucel (hydroxypropylcellulose) (HPC)); 9 of 10 (dose: 32.0 mg/kg/injection, schedule: Q01DX005 (ip), vehicle: Klucel (hydroxypropylcellulose) (HPC)).
